Results on three molecules are retold here after patent US20250223342A1 (ARGENX, published 2025).

Chains of the proteins cited; added tags and fusions are not shown. Residues count along the entry.
UniProt P02768, residues 211-403: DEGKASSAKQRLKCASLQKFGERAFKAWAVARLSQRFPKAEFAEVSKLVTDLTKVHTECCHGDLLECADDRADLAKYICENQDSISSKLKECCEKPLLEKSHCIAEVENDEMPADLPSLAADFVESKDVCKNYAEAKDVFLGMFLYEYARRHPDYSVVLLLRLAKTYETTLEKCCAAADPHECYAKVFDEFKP

Changes are numbered by the printed parent chain. Results are given in words; binding and its absence hold for the method and conditions named. Some entries that bind do so weakly or less than the wild type.

First the molecules themselves.
B1: 11C03 (VHH)
VHH: QLQVVESGGGLVQAGGSLRLSCAASERTFVAYPMGWFRQAPEKEREFVAGISWFAGATTDYADSVEGRFTISRDNAKNTAYLQMNNLKPEDTAVYYCAISHQLPGGRPGRDMDSYSYWGHGTQVTVSS
notes: also called 11C03 parental (VHH)
B2: 9F02 (VHH)
VHH: EVQLVESGGGLVQAGGSLRLSCTASRRAFIGYAMGWFRQAPGKEREFVAAISWFAGDTTDYADSVKGRFTISRDNAKNTVYLQMNGLKPEDTAVYVCAASSARPMSGRSDEYHYWGQGTQVTVSS
B3: 9E10 (VHH)
VHH: B2 VHH with E1Q, V2L, L4V, A24T, R26G, D63N, G86S, M105L, G107S

This test addresses isolated DII of serum albumin (UniProt P02768). Description: DII binder column of the clone screening.
In the case of B1, the binding result was “binds”. On to B2, for which the binding result is recorded as “binds”. Consider B3, for which the binding entry is given as “binds”.
